Data from paper PMC7870876.

Sequences of proteins named here, by UniProt entry; tags and fusion partners are left off. A change or cut given only in a name is not applied to a line headed by its entry.
UniProt Q5M7T6: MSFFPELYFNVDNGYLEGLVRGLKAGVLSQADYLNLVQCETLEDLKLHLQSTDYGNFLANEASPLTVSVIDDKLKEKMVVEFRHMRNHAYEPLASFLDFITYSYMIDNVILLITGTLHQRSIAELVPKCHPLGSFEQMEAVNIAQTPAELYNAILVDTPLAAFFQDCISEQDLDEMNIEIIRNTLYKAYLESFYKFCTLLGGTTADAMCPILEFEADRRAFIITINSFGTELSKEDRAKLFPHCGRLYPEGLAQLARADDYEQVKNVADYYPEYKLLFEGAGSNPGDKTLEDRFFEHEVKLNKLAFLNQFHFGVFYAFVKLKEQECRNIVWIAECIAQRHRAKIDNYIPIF
UniProt P25286: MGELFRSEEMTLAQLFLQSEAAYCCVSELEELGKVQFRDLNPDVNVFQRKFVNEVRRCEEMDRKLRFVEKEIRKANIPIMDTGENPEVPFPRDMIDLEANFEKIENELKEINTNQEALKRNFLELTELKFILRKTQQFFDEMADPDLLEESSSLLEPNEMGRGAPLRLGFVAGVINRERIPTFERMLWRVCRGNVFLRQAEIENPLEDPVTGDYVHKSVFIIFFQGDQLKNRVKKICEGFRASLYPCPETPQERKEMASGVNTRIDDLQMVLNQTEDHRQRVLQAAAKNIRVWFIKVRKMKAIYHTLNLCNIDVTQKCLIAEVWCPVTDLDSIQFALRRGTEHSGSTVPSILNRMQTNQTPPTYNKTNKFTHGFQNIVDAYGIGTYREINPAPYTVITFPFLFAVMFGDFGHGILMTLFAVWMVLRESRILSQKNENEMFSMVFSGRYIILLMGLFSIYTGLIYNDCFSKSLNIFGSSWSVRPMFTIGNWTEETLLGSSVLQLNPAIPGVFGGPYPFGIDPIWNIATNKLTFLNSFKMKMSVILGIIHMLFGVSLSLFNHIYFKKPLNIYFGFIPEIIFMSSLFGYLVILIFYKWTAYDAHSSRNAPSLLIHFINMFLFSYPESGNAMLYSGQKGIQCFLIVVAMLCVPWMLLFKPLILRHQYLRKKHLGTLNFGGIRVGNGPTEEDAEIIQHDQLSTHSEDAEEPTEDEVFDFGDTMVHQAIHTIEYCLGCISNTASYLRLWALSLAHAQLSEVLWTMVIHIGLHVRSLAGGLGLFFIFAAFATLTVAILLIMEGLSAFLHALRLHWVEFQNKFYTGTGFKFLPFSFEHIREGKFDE
UniProt Q8R2H0: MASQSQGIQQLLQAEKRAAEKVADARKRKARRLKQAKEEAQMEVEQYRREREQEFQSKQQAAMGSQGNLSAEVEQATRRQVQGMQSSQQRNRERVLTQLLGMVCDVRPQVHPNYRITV
UniProt B2GUV5: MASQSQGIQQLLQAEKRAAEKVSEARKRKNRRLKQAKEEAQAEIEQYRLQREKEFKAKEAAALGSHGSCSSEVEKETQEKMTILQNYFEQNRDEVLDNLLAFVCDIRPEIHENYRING
UniProt Q6AXS4: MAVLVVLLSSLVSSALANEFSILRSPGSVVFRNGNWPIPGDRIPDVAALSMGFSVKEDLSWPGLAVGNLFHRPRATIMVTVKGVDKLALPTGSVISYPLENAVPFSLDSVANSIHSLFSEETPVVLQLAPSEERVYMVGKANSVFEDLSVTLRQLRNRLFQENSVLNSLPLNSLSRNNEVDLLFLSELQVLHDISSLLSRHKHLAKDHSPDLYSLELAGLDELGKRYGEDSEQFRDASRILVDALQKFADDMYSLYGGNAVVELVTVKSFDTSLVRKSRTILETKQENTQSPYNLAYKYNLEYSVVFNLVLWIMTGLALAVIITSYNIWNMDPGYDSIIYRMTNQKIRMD
UniProt P63045: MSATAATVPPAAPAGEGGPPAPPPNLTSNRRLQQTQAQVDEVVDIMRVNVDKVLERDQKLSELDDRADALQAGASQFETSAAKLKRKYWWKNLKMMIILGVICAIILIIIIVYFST

Tests used:
[1] = biological target: V-ATPase subunit d1 (rat (endogenous in rat brain synaptic vesicles)) (UniProt Q5M7T6); test: cross-linking
[2] = biological target: V-ATPase-a1 (rat (endogenous in rat brain synaptic vesicles)) (UniProt P25286); test: cross-linking
[3] = biological target: V-ATPase subunit d1 (rat (endogenous in rat brain synaptic vesicles)) (UniProt Q5M7T6); test: cross-linking; synaptic vesicles fused with ΔN-SNARE-proteoliposomes (100 nm liposomes), then BS3 and LC-MS/MS; vesicle proteins in the more spacious membrane
[4] = biological target: V-ATPase-a1 (rat (endogenous in rat brain synaptic vesicles)) (UniProt P25286); test: as above
[5] = biological target: V-ATPase subunit d1 (rat (endogenous in rat brain synaptic vesicles)) (UniProt Q5M7T6); test: cross-linking; synaptic vesicles incubated with an excess of soluble ΔN-SNARE complex (about 3 copies per copy of Synaptobrevin-2, 16 h, 4 °C), then BS3 and LC-MS/MS; vesicle proteins and the SNARE complex on the vesicles
[6] = biological target: V-ATPase-a1 (rat (endogenous in rat brain synaptic vesicles)) (UniProt P25286); test: as above
[7] = biological target: V-ATPase subunit d1 (rat (endogenous in rat brain synaptic vesicles)) (UniProt Q5M7T6); test: cross-linking; purified, unstimulated, untreated rat brain synaptic vesicles; 10 mM BS3, 1 h, 25 °C; trypsin, enrichment of cross-linked peptides by peptide SEC, LC-MS/MS, pLink, manual validation; four biological replicates
[8] = biological target: V-ATPase-a1 (rat (endogenous in rat brain synaptic vesicles)) (UniProt P25286); test: as above
[9] = biological target: V-ATPase subunit G2 (rat (endogenous in rat brain synaptic vesicles)) (UniProt Q8R2H0); test: cross-linking
[10] = biological target: V-ATPase subunit G1 (rat (endogenous in rat brain synaptic vesicles)) (UniProt B2GUV5); test: cross-linking
[11] = biological target: V-ATPase subunit G2 (rat (endogenous in rat brain synaptic vesicles)) (UniProt Q8R2H0); test: cross-linking; synaptic vesicles fused with ΔN-SNARE-proteoliposomes (100 nm liposomes), then BS3 and LC-MS/MS; vesicle proteins in the more spacious membrane
[12] = biological target: V-ATPase subunit G1 (rat (endogenous in rat brain synaptic vesicles)) (UniProt B2GUV5); test: as above
[13] = biological target: V-ATPase subunit G2 (rat (endogenous in rat brain synaptic vesicles)) (UniProt Q8R2H0); test: cross-linking; synaptic vesicles incubated with an excess of soluble ΔN-SNARE complex (about 3 copies per copy of Synaptobrevin-2, 16 h, 4 °C), then BS3 and LC-MS/MS; vesicle proteins and the SNARE complex on the vesicles
[14] = biological target: V-ATPase subunit G1 (rat (endogenous in rat brain synaptic vesicles)) (UniProt B2GUV5); test: as above
[15] = biological target: V-ATPase subunit G2 (rat (endogenous in rat brain synaptic vesicles)) (UniProt Q8R2H0); test: cross-linking; purified, unstimulated, untreated rat brain synaptic vesicles; 10 mM BS3, 1 h, 25 °C; trypsin, enrichment of cross-linked peptides by peptide SEC, LC-MS/MS, pLink, manual validation; four biological replicates
[16] = biological target: V-ATPase subunit G1 (rat (endogenous in rat brain synaptic vesicles)) (UniProt B2GUV5); test: as above

Measured: binding

PRR (from UniProt Q6AXS4)
binds: [1] | [2] | [3] | [4] | [5] | [6] | [7] | [8]

Synaptobrevin-2 (from UniProt P63045 1-116)
binds: [8]

V-ATPase-a1 (from UniProt P25286)
binds: [1] | [9] | [10] | [3] | [11] | [12] | [5] | [13] | [14] | [7] | [15] | [16]

Results are given in words; binding and its absence hold for the method and conditions named. In cells and extracts the contact can be indirect. Binding calls can cover weak binding; strength is not graded here.
